The record followed here is publication PMC5682285.

Chains of the proteins cited; added tags and fusions are not shown.
UniProt Q14671: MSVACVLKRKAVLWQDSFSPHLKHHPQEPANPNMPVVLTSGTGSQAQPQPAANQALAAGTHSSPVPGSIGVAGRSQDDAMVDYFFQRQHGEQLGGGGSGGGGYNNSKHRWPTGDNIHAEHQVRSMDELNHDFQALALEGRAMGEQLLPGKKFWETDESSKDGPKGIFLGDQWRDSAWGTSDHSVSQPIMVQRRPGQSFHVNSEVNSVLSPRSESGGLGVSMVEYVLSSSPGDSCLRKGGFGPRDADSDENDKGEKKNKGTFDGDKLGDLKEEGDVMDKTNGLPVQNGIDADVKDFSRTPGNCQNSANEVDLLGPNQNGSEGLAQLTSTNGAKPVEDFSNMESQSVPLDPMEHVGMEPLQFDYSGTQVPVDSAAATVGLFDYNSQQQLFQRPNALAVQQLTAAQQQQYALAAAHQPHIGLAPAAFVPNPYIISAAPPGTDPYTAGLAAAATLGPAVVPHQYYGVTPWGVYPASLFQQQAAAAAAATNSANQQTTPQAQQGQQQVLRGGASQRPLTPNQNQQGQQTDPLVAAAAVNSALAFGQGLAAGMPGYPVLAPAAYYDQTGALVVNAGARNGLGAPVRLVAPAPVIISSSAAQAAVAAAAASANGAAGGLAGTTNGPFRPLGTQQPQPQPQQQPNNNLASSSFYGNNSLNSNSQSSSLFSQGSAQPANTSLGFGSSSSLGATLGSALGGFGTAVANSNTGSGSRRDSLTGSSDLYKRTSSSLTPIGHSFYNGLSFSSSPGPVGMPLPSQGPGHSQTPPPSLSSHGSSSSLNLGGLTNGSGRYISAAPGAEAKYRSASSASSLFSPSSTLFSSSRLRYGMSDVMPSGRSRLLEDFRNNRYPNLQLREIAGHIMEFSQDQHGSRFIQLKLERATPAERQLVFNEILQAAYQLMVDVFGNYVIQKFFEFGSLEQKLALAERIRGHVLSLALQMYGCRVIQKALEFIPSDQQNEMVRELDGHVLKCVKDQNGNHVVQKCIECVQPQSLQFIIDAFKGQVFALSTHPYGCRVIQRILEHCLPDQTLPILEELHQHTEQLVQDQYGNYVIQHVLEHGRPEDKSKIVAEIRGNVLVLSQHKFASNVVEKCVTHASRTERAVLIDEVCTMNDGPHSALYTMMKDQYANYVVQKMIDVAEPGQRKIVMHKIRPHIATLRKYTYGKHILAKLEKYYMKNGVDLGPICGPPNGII

These are yes or no findings as the source states them, for the method shown. In cells and extracts the contact can be indirect. These calls come from enrichment with a bait or labelling near it, and not all partners need be listed.

This assay deals with T1, CSDE1 (cold shock domain containing E1) (human (endogenous in hESCs)) (UniProt O75534).
T1 sequence: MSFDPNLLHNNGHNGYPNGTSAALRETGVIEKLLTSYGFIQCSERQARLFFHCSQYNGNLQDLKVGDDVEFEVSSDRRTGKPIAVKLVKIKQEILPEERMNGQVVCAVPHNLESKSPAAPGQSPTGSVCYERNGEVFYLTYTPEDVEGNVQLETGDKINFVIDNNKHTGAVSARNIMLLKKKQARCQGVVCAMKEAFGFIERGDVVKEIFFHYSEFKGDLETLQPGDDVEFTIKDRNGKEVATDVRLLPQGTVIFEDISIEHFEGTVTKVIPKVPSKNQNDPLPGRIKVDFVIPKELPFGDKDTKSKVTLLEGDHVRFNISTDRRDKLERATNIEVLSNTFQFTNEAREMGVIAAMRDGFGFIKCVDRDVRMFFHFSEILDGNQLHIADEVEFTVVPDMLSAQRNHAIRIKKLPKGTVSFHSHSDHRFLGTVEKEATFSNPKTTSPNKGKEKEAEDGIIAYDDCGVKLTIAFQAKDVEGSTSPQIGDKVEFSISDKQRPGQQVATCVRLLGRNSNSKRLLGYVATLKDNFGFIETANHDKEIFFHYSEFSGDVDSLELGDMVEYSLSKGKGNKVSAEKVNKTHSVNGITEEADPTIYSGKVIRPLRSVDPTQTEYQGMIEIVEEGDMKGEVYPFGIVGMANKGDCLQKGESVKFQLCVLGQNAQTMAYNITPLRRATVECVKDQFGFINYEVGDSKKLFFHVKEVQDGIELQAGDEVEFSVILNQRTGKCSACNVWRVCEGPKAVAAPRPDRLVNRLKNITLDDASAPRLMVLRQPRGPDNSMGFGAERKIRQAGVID
Nature of the assay: affinity purification with mass spectrometry; endogenous CSDE1 immunoprecipitated from hESC lysate (modified RIPA buffer: 50 mM Tris-HCl pH 7.4, 150 mM NaCl, 1% IgPal, 0.25% sodium deoxycholate, 1 mM EDTA) with anti-CSDE1 antibody and Protein A beads at 4 °C; anti-FLAG antibody as control; in-column tryptic digestion, single shot label-free proteomics (MaxQuant, Perseus).

As for “Pumilio homolog 1 (PUM1) (from UniProt Q14671 1-1186)”, the binding entry is “binds”.
